No constants are given. Whether binding was seen depends on the method and setting. In cells and extracts the contact can be indirect. These calls come from enrichment with a bait or labelling near it, and not all partners need be listed. No binding means not detected with the bait. Where a sequence is shown, tags or fusion partners need not be part of it.
T1: APRF1-3xFLAG (ANTHESIS PROMOTING FACTOR 1, FLAG-tagged) (Arabidopsis thaliana) (UniProt Q9LYK6)
T1 sequence: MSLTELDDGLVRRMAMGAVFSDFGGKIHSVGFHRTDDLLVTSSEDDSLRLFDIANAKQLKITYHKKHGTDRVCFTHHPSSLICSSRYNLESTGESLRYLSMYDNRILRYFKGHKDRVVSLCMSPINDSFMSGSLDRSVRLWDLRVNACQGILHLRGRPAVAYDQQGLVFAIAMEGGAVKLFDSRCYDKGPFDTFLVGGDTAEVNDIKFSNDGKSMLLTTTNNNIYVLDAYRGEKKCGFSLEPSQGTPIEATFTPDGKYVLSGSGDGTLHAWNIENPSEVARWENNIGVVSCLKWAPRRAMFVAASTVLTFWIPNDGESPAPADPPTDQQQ

Protein sequences, listed by entry. Tags and fused reporters are not part of them. Lines headed by an entry give the natural chain unless they say otherwise; changes in a name come on top.
UniProt P48484: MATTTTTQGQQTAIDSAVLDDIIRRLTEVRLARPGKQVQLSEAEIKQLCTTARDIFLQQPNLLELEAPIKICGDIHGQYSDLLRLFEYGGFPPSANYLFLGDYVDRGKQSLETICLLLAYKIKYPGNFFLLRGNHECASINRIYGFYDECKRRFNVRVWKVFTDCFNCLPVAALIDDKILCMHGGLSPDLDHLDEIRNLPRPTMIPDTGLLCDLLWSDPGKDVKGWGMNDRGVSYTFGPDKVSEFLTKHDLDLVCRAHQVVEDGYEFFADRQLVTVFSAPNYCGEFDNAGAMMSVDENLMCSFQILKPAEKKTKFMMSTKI
UniProt Q94F49: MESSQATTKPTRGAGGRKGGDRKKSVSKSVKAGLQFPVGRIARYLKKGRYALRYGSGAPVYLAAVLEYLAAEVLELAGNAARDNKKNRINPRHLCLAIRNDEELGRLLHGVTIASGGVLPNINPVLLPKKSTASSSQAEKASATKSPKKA


Each molecule was assayed against T1, APRF1-3xFLAG (ANTHESIS PROMOTING FACTOR 1, FLAG-tagged) (Arabidopsis thaliana) (assay: affinity purification with mass spectrometry; crosslinked nuclear immunoprecipitation and mass spectrometry (CLNIP-MS): 10-day-old APRF1pro:APRF1-3xFLAG seedlings against Col-0 control, 1% formaldehyde crosslinking, purified nuclei, Benzonase, anti-FLAG antibody on M-270 epoxy Dynabeads overnight at 4°C, three biological replicates).

Row | Molecule | binding
1 | ESP4 | no binding
2 | INT7 (Arabidopsis homolog of Integrator subunit 7) | no binding
3 | INT9 (Arabidopsis homolog of Integrator subunit 9) | no binding
4 | INT11 (Arabidopsis homolog of Integrator subunit 11) | no binding
5 | Ssu72 (Arabidopsis) (enzyme) | no binding
6 | TYPE ONE SERINE/THREONINE PROTEIN PHOSPHATASE 4 (TOPP4) (from UniProt P48484 1-321) (enzyme) | binds
7 | histone H2A.W.7 (from UniProt Q94F49 1-150) | binds
8 | LU… (LD) (protein, UniProt Q38796 1-953) MDAFKEEIEIGSSVESLMELLDSQKVLFHSQIDQLQDVVVAQCKLTGVNPLAQEMAAGALSIKIGKRPRDLLNPKAVKYLQAVFAIKDAISKRESREISALFGITVAQVREFFVTQKTRVRKQVRLSREKVVMSNTHALQDDGVPENNNATNHVEPVPLNSIHPEACSISWGEGETVALIPPEDIPPDISDSDKYFVENIFSLLRKEETFSGQVKLMEWIMQIQDASVLIWFLSKGGVLILTTWLSQAASEEQTSVLLLILKVLCHLPLHKASPENMSAILQSVNGLRFYRISDISNRAKGLLSRWTKLFAKIQAMKKQNRNSSQIDSQSQLLLKQSIAEIMGDSSNPEDILSLSNGKSENVRRIESSQGPKLLLTSADDSTKKHMLGSNPSYNKERRKVQMVEQPGQKAAGKSPQTVRIGTSGRSRPMSADDIQKAKMRALYMQSKNSKKDPLPSAIGDSKIVAPEKPLALHSAKDSPPIQNNEAKTEDTPVLSTVQPVNGFSTIQPVNGPSAVQPVNGPLAVQPVNGPSALQPVNGPSAVIVPVQADEIKKPSTPPKSISSKVGVMMKMSSQTILKNCKRKQIDWHVPPGMELDELWRVAAGGNSKEADVQRNRNRRERETTYQSLQTIPLNPKEPWDREMDYDDSLTPEIPSQQPPEESLTEPQDSLDERRIAAGAATTSSSLSSPEPDLELLAALLKNPDLVYALTSGKPSNLAGQDMVKLLDVIKTGAPNSSSSSNKQVEERVEVSLPSPTPSTNPGMSGWGQEGIRNPFSRQNQVGTAVARSGTQLRVGSMQWHQTNEQSIPRHAPSAYSNSITLAHTEREQQQYMQPKLHHNLHFQQQQQQPISTTSYAVREPVGQMGTGTSSSWRSQQSQNSYYSHQENEIASASQVTSYQGNSQYMSSNPGYESWSPDNSPSRNQLNMRGQQQQASRKHDSSTHPYWNQNKRWR | binds
9 | FLOWERING LOCUS D (FLD) (enzyme, UniProt Q9CAE3 1-789) MVSFSAPKKRRRGRSQRSMSSLNSLPVPNVGLLPGNSNFVSSSASSSGRFNVEVVNGSNQTVKSYPGIGDEIITINKEATTEALLALTAGFPADSLTEEEIEFGVVPIVGGIEQVNYILIRNHIISKWRENISSWVTKEMFLNSIPKHCSSLLDSAYNYLVTHGYINFGIAQAIKDKFPAQSSKSSVIIVGAGLSGLAAARQLMRFGFKVTVLEGRKRPGGRVYTKKMEANRVGAAADLGGSVLTGTLGNPLGIIARQLGSSLYKVRDKCPLYRVDGKPVDPDVDIKVEVAFNQLLDKASKLRQLMGDVSMDVSLGAALETFRQVSGNDVATEEMGLFNWHLANLEYANAGLVSKLSLAFWDQDDPYDMGGDHCFLPGGNGRLVQALAENVPILYEKTVQTIRYGSNGVKVTAGNQVYEGDMVLCTVPLGVLKNGSIKFVPELPQRKLDCIKRLGFGLLNKVAMLFPYVFWSTDLDTFGHLTEDPNYRGEFFLFYSYAPVAGGALLIALVAGEAAHKFETMPPTDAVTRVLHILRGIYEPQGINVPDPLQTVCTRWGGDPFSLGSYSNVAVGASGDDYDILAESVGDGRLFFAGEATTRRYPATMHGAFVTGLREAANMAQSAKARGIRKRIDRNPSRNAHSCAILLADLFRDPDLEFGSFCIIFSRRNPDPKSPAILRVTLSEPRKRNEDPKADQHSNKILFQQLQSHFNQQQQIQVYTLLTRQQALDLREVRGGDEKRLYYLCETLGVKLVGRKGLGVGADSVIASIKAERTGRKLPSSSTSGTKSG | binds
10 | C-terminal domain phosphatase-like 3 (CPL3) (enzyme, UniProt Q8LL04 1-1241) MLVARSGCSRTLIRMGNDENLMVMVDVEEGEIPDSVNTEIEVKHKSTTTTADVGGDVDVGVVAGGRGGGGGGSNGNSRVWTMEELISQYPAYRPYANSGLSNLAWARAVQNKPFNEGLVMDYEPRESDKIVIEDSDDEKEEGELEEGEIDLVDNASDDNLVEKDTESVVLISADKVEDDRILKERDLEKKVKLIRGVLESTSLVEAQTGFEGVCSRILGALESLRELVSDNDDFPKRDTLVQLSFASLQTINYVFCSMNNISKERNKETMSRLLTLVNDHFSQFLSFNQKNEIETMNQDLSRSAIAVFAGTSSEENVNQMTQPSNGDSFLAKKLTSESTHRGAAYLRSRLPMLPLLDLHKDHDADSLPSPTRETTPSLPVNGRHTMVRPGFPVGRESQTTEGAKVYSYESDARKAVSTYQQKFGLNSVFKTDDLPSPTPSGEPNDGNGDVGGEVSSSVVKSSNPGSHLIYGQDVPLPSNFNSRSMPVANSVSSTVPPHHLSIHAISAPTASDQTVKPSAKSRDPRLRLAKPDAANVTIYSYSSGDARNLSKVELSADLVNPRKQKAADEFLIDGPAWKRQKSDTDAPKAAGTGGWLEDTESSGLLKLESKPRLIENGVTSMTSSVMPTSAVSVSQKVRTASTDTASLQSLLKDIAVNPTMLLNLLKMGERQKVPEKAIQKPMDPRRAAQLPGSSVQPGVSTPLSIPASNALAANSLNSGVLQDSSQNAPAAESGSIRMKPRDPRRILHGSTLQRTDSSMEKQTKVNDPSTLGTLTMKGKAEDLETPPQLDPRQNISQNGTSKMKISGELLSGKTPDFSTQFTKNLKSIADMVVVSQQLGNPPASMHSVQLKTERDVKHNPSNPNAQDEDVSVSAASVTAAAGPTRSMNSWGDVEHLFEGYDDIQRVAIQRERVRRLEEQNKMFASQKLSLVLDIDHTLLNSAKFNEVESRHEEILRKKEEQDREKPYRHLFRFLHMGMWTKLRPGIWNFLEKASKLYELHLYTMGNKLYATEMAKLLDPKGVLFNGRVISKGDDGDPLDGDERVPKSKDLEGVMGMESSVVIIDDSVRVWPQHKMNLIAVERYLYFPCSRRQFGLLGPSLLELDRDEVPEEGTLASSLAVIEKIHQNFFSHTSLDEVDVRNILASEQRKILAGCRIVFSRIIPVGEAKPHLHPLWQTAEQFGAVCTTQVDEHVTHVVTNSLGTDKVNWALTRGRFVVHPGWVEASAFLYQRANENLYAINP | binds
11 | CPSF100 (protein, UniProt Q9LKF9 1-739) MGTSVQVTPLCGVYNENPLSYLVSIDGFNFLIDCGWNDLFDTSLLEPLSRVASTIDAVLLSHPDTLHIGALPYAMKQLGLSAPVYATEPVHRLGLLTMYDQFLSRKQVSDFDLFTLDDIDSAFQNVIRLTYSQNYHLSGKGEGIVIAPHVAGHMLGGSIWRITKDGEDVIYAVDYNHRKERHLNGTVLQSFVRPAVLITDAYHALYTNQTARQQRDKEFLDTISKHLEVGGNVLLPVDTAGRVLELLLILEQHWSQRGFSFPIYFLTYVSSSTIDYVKSFLEWMSDSISKSFETSRDNAFLLRHVTLLINKTDLDNAPPGPKVVLASMASLEAGFAREIFVEWANDPRNLVLFTETGQFGTLARMLQSAPPPKFVKVTMSKRVPLAGEELIAYEEEQNRLKREEALRASLVKEEETKASHGSDDNSSEPMIIDTKTTHDVIGSHGPAYKDILIDGFVPPSSSVAPMFPYYDNTSEWDDFGEIINPDDYVIKDEDMDRGAMHNGGDVDGRLDEATASLMLDTRPSKVMSNELIVTVSCSLVKMDYEGRSDGRSIKSMIAHVSPLKLVLVHAIAEATEHLKQHCLNNICPHVYAPQIEETVDVTSDLCAYKVQLSEKLMSNVIFKKLGDSEVAWVDSEVGKTERDMRSLLPMPGAASPHKPVLVGDLKIADFKQFLSSKGVQVEFAGGGALRCGEYVTLRKVGPTGQKGGASGPQQILIEGPLCEDYYKIRDYLYSQFYLL | binds
12 | Cstf64 (protein, UniProt Q9M9G6 1-461) MASSSSQRRCVFVGNIPYDATEEQLREICGEVGPVVSFRLVTDRETGKPKGYGFCEYKDEETALSARRNLQSYEINGRQLRVDFAENDKGTDKTRDQSQGGPGLPSTTTVTESQKQIGGPVDSNMHQPVGLHLATTAASVIAGALGGPQVGSQFTQSNLQVPASDPLALHLAKMSRSQLTEIISSIKLMATQNKEHARQLLVSRPQLLKAVFLAQVMLGIVSPQVLQSPNIVQAPSHMTGSSIQDAQLSGQNLLPPLAQRSQQLSRAPHSQYPVQQSSKQPFSQIPQLVAQPGPSSVNPPPRSQVKVENAPFQRQQVVPASTNIGYSSQNSVPNNAIQPSQVPHQALPNSVMQQGGQTVSLNFGKRINEGPPHQSMNRPSKMMKVEDRRTTSLPGGHVSNSMLPNQAQAPQTHISPDVQSTLLQQVMNLTPEQLRLLTPEQQQEVLKLQQALKQDHMMQPS | no binding

Source: paper PMC7616277
